According to PubChem BioAssay AID1625 (Sanford-Burnham Center for Chemical Genomics, 2009):
This is one part of the list.

Assay: insulin promoter activators in MIN6 cells, imaging, high-content screening, mouse beta cells (AID 1625);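 also: total cells summed across four imaged fields per well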
Conditions: MIN6 insulin promoter-GFP reporter, measured here: cytotoxicity, nuclei count, at 5 µM

**Q.** For `CN(C(=O)Cc1ccc(Cl)c(Cl)c1)[C@@H]1CCCC[C@H]1N1CCCC1`, which cell count is on record?
**A.** The cell count was 1460 cells.

**Q.** With `CC(C)/C=N\N=C(\N)N[N+](=O)[O-]` as the compound, how does the cell count read?
**A.** Its cell count is 1260 cells.

**Q.** Which cell count does the source give for `O=[As](O)(c1ccccc1Br)c1ccccc1Br` here?
**A.** The cell count was 1430 cells.

**Q.** With `CC(C)(C)C(=O)NC(Sc1ncccn1)C(Cl)(Cl)Cl` (stereo not given) as the compound, how does the cell count read?
**A.** The cell count was 1360 cells.

**Q.** Which cell count does the source give for `Clc1n[nH]nc1-c1nn[nH][15n]1` here?
**A.** The cell count was 1640 cells.

**Q.** With `O=[N+]([O-])c1cc([N+](=O)[O-])c(-n2nnc3ccccc32)c([N+](=O)[O-])c1` as the compound, how does the cell count read?
**A.** Its cell count is 1420 cells.

**Q.** With `O=P1(Nc2ccccn2)COc2ccccc2OC1` as the compound, how does the cell count read?
**A.** The cell count was 1210 cells.

**Q.** With `CCOP(=O)(Nc1ccc(C)cn1)OCC` as the compound, how does the cell count read?
**A.** The cell count was 953 cells.

**Q.** With `CCCOc1ccc(NP(C)(=O)Oc2ccc(Cl)cc2)cc1` (stereo not given) as the compound, how does the cell count read?
**A.** The cell count was 1490 cells.

**Q.** Which cell count does the source give for `CP(=O)(Nc1ccc(SC(F)(F)F)cc1)Oc1ccccc1` (stereo not given) here?
**A.** The cell count was 1450 cells.

**Q.** For `Nc1cccc([As](=O)(O)c2ccccc2)c1`, which cell count is on record?
**A.** The cell count was 1080 cells.

**Q.** With `O=[As](O)(c1cccs1)c1cccs1` as the compound, how does the cell count read?
**A.** Its cell count is 963 cells.

**Q.** Which cell count does the source give for `Cc1ccc(OCC(=O)OC2CN3CCC2CC3)cc1` (stereo not given) here?
**A.** Its cell count is 1610 cells.

**Q.** For `O=P1(Nc2ccc(Br)cn2)COc2ccccc2OC1`, which cell count is on record?
**A.** Its cell count is 1040 cells.

**Q.** Which cell count does the source give for `CN1CCCCC1COC(=O)C1(O)c2ccccc2CCc2ccccc21` (stereo not given) here?
**A.** The cell count was 1170 cells.

**Q.** Which cell count does the source give for `COc1ccccc1OP(C)(=O)Nc1c(C)cccc1C` (stereo not given) here?
**A.** The cell count was 1550 cells.

**Q.** Which cell count does the source give for `O=P1(Nc2ncccn2)COc2ccccc2OC1` here?
**A.** The cell count was 1040 cells.

**Q.** With `CCOC(=O)C(CC)C1=NC(C)(C)Cc2ccccc21.O=[N+]([O-])c1cc([N+](=O)[O-])c(O)c([N+](=O)[O-])c1` (stereo not given) as the compound, how does the cell count read?
**A.** The cell count was 1420 cells.

**Q.** For `CN(C)C1(CNC(=O)c2ccc(S(C)(=O)=O)cc2)CCCCC1`, which cell count is on record?
**A.** The cell count was 1330 cells.

**Q.** Which cell count does the source give for `O=[N+]([O-])c1cc([N+](=O)[O-])c(Nc2nnnn2CCO)c([N+](=O)[O-])c1` here?
**A.** The cell count was 991 cells.

**Q.** For `O=C(/C=C/c1ccccc1)OC1CN2CCC1CC2` (stereo not given), which cell count is on record?
**A.** The cell count was 1300 cells.

**Q.** With `CC1CCC(C(C)C)C(OP(=O)(Nc2ccccn2)c2ccccc2)C1` (stereo not given) as the compound, how does the cell count read?
**A.** The cell count was 1300 cells.

**Q.** For `Cc1nn(-c2ccccc2)c2c1P(=O)(N1CCOCC1)N(C)C(c1ccccc1)=N2` (stereo not given), which cell count is on record?
**A.** The cell count was 1220 cells.

**Q.** With `COc1cc(C2NCCC3(OCCO3)C2(C)C)cc(OC)c1OC.O=[N+]([O-])c1cc([N+](=O)[O-])c(O)c([N+](=O)[O-])c1` (stereo not given) as the compound, how does the cell count read?
**A.** The cell count was 1320 cells.

**Q.** With `CN(C(=O)Cc1ccccc1)[C@@H]1CC[C@]2(CCCO2)C[C@H]1N1CCCC1` as the compound, how does the cell count read?
**A.** The cell count was 956 cells.

**Q.** Which cell count does the source give for `CCOP1(=S)c2c(C)nn(CCC#N)c2N=C(c2ccc(F)cc2)N1C` (stereo not given) here?
**A.** The cell count was 1010 cells.

**Q.** With `CC1=NCCc2c1[nH]c1ccccc21.O=[N+]([O-])c1cc([N+](=O)[O-])c(O)c([N+](=O)[O-])c1` as the compound, how does the cell count read?
**A.** The cell count was 1330 cells.

**Q.** For `O=[N+]([O-])c1ccc2c(c1)nnn2O`, which cell count is on record?
**A.** Its cell count is 933 cells.

**Q.** For `O=C(O)COc1ccc([As](=O)(O)O)cc1[N+](=O)[O-]`, which cell count is on record?
**A.** Its cell count is 1390 cells.

**Q.** For `Nc1ccccc1[As](=O)(O)c1ccccc1`, which cell count is on record?
**A.** Its cell count is 1100 cells.

**Q.** For `O=P(Nc1nccs1)(c1ccccc1)c1nc2ccccc2s1` (stereo not given), which cell count is on record?
**A.** Its cell count is 759 cells.

**Q.** Which cell count does the source give for `O=C(O)c1cccc(Nc2c([N+](=O)[O-])cc([N+](=O)[O-])cc2[N+](=O)[O-])c1` here?
**A.** The cell count was 987 cells.

**Q.** With `CCOP1(=S)c2c(C)nn(CCC#N)c2N=C(c2ccccc2F)N1C` (stereo not given) as the compound, how does the cell count read?
**A.** The cell count was 1290 cells.

**Q.** Which cell count does the source give for `CS(=O)(=O)c1cc([N+](=O)[O-])c2no[n+]([O-])c2c1` here?
**A.** The cell count was 1400 cells.

**Q.** Which cell count does the source give for `CCOP(=O)(Nc1cccc2ccccc12)OCC` here?
**A.** The cell count was 1210 cells.

**Q.** With `Nc1cccc2c([As](=O)(O)O)cccc12` as the compound, how does the cell count read?
**A.** The cell count was 1340 cells.

**Q.** Which cell count does the source give for `Cc1ccc(NCCc2c([N+](=O)[O-])cc([N+](=O)[O-])cc2[N+](=O)[O-])cc1` here?
**A.** Its cell count is 1390 cells.

**Q.** For `CP(=O)(Nc1cccc(Br)c1)Oc1ccccc1` (stereo not given), which cell count is on record?
**A.** Its cell count is 996 cells.

**Q.** Which cell count does the source give for `Cc1ccc(C)c(NP(C)(=O)Oc2ccccc2)c1` (stereo not given) here?
**A.** Its cell count is 1220 cells.

**Q.** Which cell count does the source give for `CCCOP(=S)(Nc1nc(N)cc(=O)[nH]1)OCCC` here?
**A.** Its cell count is 903 cells.

**Q.** With `Cc1cc(C)cc(OP(C)(=O)Nc2ccc(C)cc2C)c1` (stereo not given) as the compound, how does the cell count read?
**A.** Its cell count is 900 cells.

**Q.** With `Cc1cccc(OCC(=O)OC2CN3CCC2CC3)c1` (stereo not given) as the compound, how does the cell count read?
**A.** Its cell count is 1710 cells.

**Q.** With `O=[As](O)(c1cccc(O)c1)c1cccc(O)c1` as the compound, how does the cell count read?
**A.** Its cell count is 1440 cells.

**Q.** With `CCOC(=O)c1ccc(NP(C)(=O)Oc2cc(C)cc(C)c2)cc1` (stereo not given) as the compound, how does the cell count read?
**A.** The cell count was 1440 cells.

**Q.** Which cell count does the source give for `O=C(OC1CN2CCC1CC2)c1ccc(Cl)cc1` (stereo not given) here?
**A.** Its cell count is 1320 cells.

**Q.** Which cell count does the source give for `COc1ccccc1OP(C)(=O)Nc1cccc(Br)c1` (stereo not given) here?
**A.** Its cell count is 872 cells.

**Q.** With `O=[As](O)(O)c1cccnc1` as the compound, how does the cell count read?
**A.** Its cell count is 1090 cells.

**Q.** Which cell count does the source give for `COc1cc(C(=O)NCC2(N3CCOCC3)CCCCC2)cc(Cl)c1OC(C)C` here?
**A.** The cell count was 1660 cells.

**Q.** With `COc1ccc(N/C(=N/P(=O)(N2CCOCC2)N2CCOCC2)N2CCOCC2)cc1` as the compound, how does the cell count read?
**A.** Its cell count is 1050 cells.

**Q.** With `COc1cc(I)ccc1[As](=O)(O)O` as the compound, how does the cell count read?
**A.** The cell count was 1060 cells.

**Q.** For `COc1ccc2nc(NP(=O)(c3ccccc3)c3ccccc3)sc2c1`, which cell count is on record?
**A.** The cell count was 1410 cells.

**Q.** With `Cc1c2c(nc3ccccc13)SC(C(Cl)Cl)C2` (stereo not given) as the compound, how does the cell count read?
**A.** Its cell count is 1590 cells.

**Q.** For `CCN(CC)CCCOC(=O)C(O)(c1ccccc1)c1ccccc1`, which cell count is on record?
**A.** The cell count was 1290 cells.

**Q.** For `Cc1cc(=O)[nH]c(N[N+](=O)[O-])n1`, which cell count is on record?
**A.** The cell count was 1680 cells.

**Q.** Which cell count does the source give for `O=C(OC1CN2CCC1CC2)C12CC3CC(CC(C3)C1)C2` (stereo not given) here?
**A.** The cell count was 929 cells.

**Q.** With `COc1ccc(OP(C)(=O)Nc2cccc(F)c2)cc1` (stereo not given) as the compound, how does the cell count read?
**A.** Its cell count is 924 cells.

**Q.** For `O=[N+]([O-])c1cc([N+](=O)[O-])c(-c2ccn[nH]2)s1`, which cell count is on record?
**A.** The cell count was 754 cells.

**Q.** Which cell count does the source give for `CC(C)NC(=O)NP(=O)(Oc1ccccc1)Oc1ccccc1` here?
**A.** The cell count was 1280 cells.

**Q.** With `COc1ccccc1OP(C)(=O)Nc1cc(Cl)ccc1C` (stereo not given) as the compound, how does the cell count read?
**A.** Its cell count is 1620 cells.

**Q.** For `Cc1cc(C)cc(OP(C)(N)=O)c1` (stereo not given), which cell count is on record?
**A.** Its cell count is 1120 cells.

**Q.** Which cell count does the source give for `ClCCSc1nnc(-c2cccnc2)o1` here?
**A.** Its cell count is 1190 cells.

**Q.** With `CCOC(=O)c1ccc(NP(C)(=O)Oc2ccccc2)cc1` (stereo not given) as the compound, how does the cell count read?
**A.** The cell count was 1460 cells.

**Q.** For `CC(C)c1ccc(OP(=O)(Nc2ccccn2)Oc2ccccc2F)cc1` (stereo not given), which cell count is on record?
**A.** The cell count was 1130 cells.

**Q.** Which cell count does the source give for `Cc1ccc(NP(C)(=O)Oc2ccccc2)c(C)c1` (stereo not given) here?
**A.** The cell count was 959 cells.

**Q.** For `COc1ccccc1OP(C)(=O)Nc1ccc(C)cc1` (stereo not given), which cell count is on record?
**A.** The cell count was 1270 cells.

**Q.** Which cell count does the source give for `Cc1cccc(C)c1OP(C)(N)=O` (stereo not given) here?
**A.** The cell count was 1090 cells.

**Q.** With `Cc1ccc(OP(=O)(Nc2ccc([N+](=O)[O-])cn2)Oc2ccc(C)cc2)cc1` as the compound, how does the cell count read?
**A.** The cell count was 1420 cells.

**Q.** For `CC(C)(C)c1ccc(OP(C)(=O)Nc2ccc(SC(F)(F)F)cc2)cc1` (stereo not given), which cell count is on record?
**A.** Its cell count is 1200 cells.

**Q.** Which cell count does the source give for `O=[N+]([O-])c1ccc2c(c1)C=Nc1ccccc1O2` here?
**A.** The cell count was 1130 cells.

**Q.** With `Cc1ccc2nc3c(c(C)c2c1)CC(C(Cl)Cl)S3` (stereo not given) as the compound, how does the cell count read?
**A.** The cell count was 1430 cells.

**Q.** With `C[As](=O)(O)c1cccc(C(=O)O)c1` as the compound, how does the cell count read?
**A.** Its cell count is 1380 cells.

**Q.** Which cell count does the source give for `O=[As](O)(c1ccc(O)cc1)c1ccccc1O` here?
**A.** The cell count was 1050 cells.

**Q.** Which cell count does the source give for `COc1ccccc1OP(C)(=O)Nc1ccccc1` (stereo not given) here?
**A.** The cell count was 1320 cells.

**Q.** For `Cc1cc(SC(NC=O)C(Cl)(Cl)Cl)ncn1` (stereo not given), which cell count is on record?
**A.** Its cell count is 1270 cells.

**Q.** For `O=P(Nc1ccccn1)(c1cccc2ccccc12)c1cccc2ccccc12`, which cell count is on record?
**A.** Its cell count is 1480 cells.
